The campaign covered roughly 220,000 compounds. About 770 (0.35%) were called active. Inconclusive means that the source gave no clear call. Such entries were picked first, then a sample of the others. Rule as the data show it: active = binding response below about 49% or above about 150%; inconclusive = no clear call, values can overlap the other calls; inactive = in between.
What follows are molecules tested against Guanine nucleotide-binding protein G(o) subunit alpha (Homo sapiens) (UniProt P09471) (assay: RGS7-Galphao binding modulators, primary screen, biochemical, multiplexed bead flow cytometry (AID 1439;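 also: fluorescent Galphao held in activated GDP-AlF4 state binding bead-coupled RGS7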)). Settings: at 10 µM, actives lie on both sides.

The chains behind the UniProt entries cited, without tags or fusion partners.
UniProt P09471, whole entry, looked up: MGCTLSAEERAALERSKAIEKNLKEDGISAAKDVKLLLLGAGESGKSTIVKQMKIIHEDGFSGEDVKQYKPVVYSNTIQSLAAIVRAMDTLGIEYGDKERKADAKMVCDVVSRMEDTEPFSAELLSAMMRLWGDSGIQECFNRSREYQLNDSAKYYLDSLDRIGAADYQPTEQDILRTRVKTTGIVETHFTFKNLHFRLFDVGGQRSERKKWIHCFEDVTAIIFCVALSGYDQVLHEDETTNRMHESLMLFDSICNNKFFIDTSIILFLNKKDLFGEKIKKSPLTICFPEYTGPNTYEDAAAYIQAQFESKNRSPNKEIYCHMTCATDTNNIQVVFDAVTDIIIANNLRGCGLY

Compound	binding response (% of control)
CC(C)C[C@H](CO)Nc1nc(Nc2cccc(Cl)c2)c2ncn(C(C)C)c2n1	inconclusive: 102%
O=C(Nc1ccccc1C(=O)NC(Cc1ccc(O)cc1)C(=O)O)c1ccccc1 (stereo not drawn)	inactive: 101%
O=C(Nc1nnc(COc2ccccc2F)s1)Nc1ccccc1F	inconclusive: 82.6%
COc1cc([N+](=O)[O-])cc(/C=N/NC(=O)c2cccnc2)c1O	inconclusive: 126%
Cn1c(=O)c2c(nc(NCCO)n2CCc2ccccc2)n(C)c1=O	inactive: 94.1%
COc1ccc(NC2c3ccccc3C(=O)N2Cc2ccc3c(c2)OCO3)cc1 (stereo not drawn)	inconclusive: 63.2%
CCOC(=O)c1ccc(N=NN(C)C)cc1	inconclusive: 90.2%
Cc1ccc2c(c1)C1CN(C)CCC1N2C(=O)COc1ccc(N(C)C(=O)C(C)(C)C)cc1 (stereo not drawn)	inconclusive: 112%
O=C(COc1ccccc1)N/N=C/c1sc(=O)n(Cc2cccc(C(=O)O)c2)c1Cl	inconclusive: 99.7%
Cc1nnc(N/N=C/c2ccco2)n1N	inactive: 101%
CCOC(=O)c1cc(-c2csc(-c3cccc(Cl)c3)n2)on1	inconclusive: 84.1%
O=c1cc(C(F)(F)F)nc(-c2ccccc2OC(F)(F)F)[nH]1	inconclusive: 104%
CSc1c(C#N)c(N)nc2sc(C(=O)c3ccc(Cl)c(Cl)c3)c(N)c12	inconclusive: 102%
O=C(COc1ccc(Cl)cc1Cl)NNC(=S)Nc1ccc(F)cc1	inactive: 95.3%
O=c1c2c3c(sc2nc(N2CCNCC2)n1CCc1ccccc1)CCCCC3	inconclusive: 76.4%
CCNC(=O)NC(=O)CSc1ccc(NC(C)=O)cc1	inactive: 54.4%
COc1ccc(C(=O)NCCc2nnc(SCC(=O)Nc3ccccc3C(C)C)n2C)cc1	inactive: 100%
O=Cc1ccc(OCC(=O)N2CCOCC2)cc1	inactive: 105%
Cc1ccc(Cl)cc1N1CCN(CC(O)COC(C)C)CC1 (stereo not drawn)	inconclusive: 35.4%
Fc1ccc(C(Nc2ccccn2)c2c[nH]c3ccccc23)cc1 (stereo not drawn)	inactive: 133%
O=S(=O)(Nc1cccc(S(=O)(=O)N2CCOCC2)c1)c1ccc2c(c1)OCCO2	inconclusive: 101%
O=C(CN(C(=O)CCC(=O)Nc1nccs1)c1cccc(F)c1)NCC1CCCO1 (stereo not drawn)	inactive: 116%
CCCNC(=O)CCn1c(=S)oc2ccccc21	inconclusive: 58.6%
Fc1ccccc1-c1nc2nc3ccccc3nc2n1CC1CCCO1 (stereo not drawn)	inconclusive: 141%

Among those listed so far, 2 have an NH in an aromatic ring.
Compound	binding response (% of control)
O=c1cc(C(F)(F)F)nc(-c2ccccc2OC(F)(F)F)[nH]1	inconclusive: 104%
Fc1ccc(C(Nc2ccccn2)c2c[nH]c3ccccc23)cc1 (stereo not drawn)	inactive: 133%

Next part.

Compound	binding response (% of control)
CC(C)C(=O)Nc1ccc2c(c1)nc(CCN1CCN(c3ccccc3)CC1)n2C	inconclusive: 109%
O=C1N(Cc2cccc(Cl)c2)C[C@@H]2C[C@@H](c3c[nH]c4ccccc34)N3CCC[C@@]123	inactive: 101%
CCc1ccc(OCc2n[nH]c(=S)n2C(C)CCCC(C)C)cc1 (stereo not drawn)	inconclusive: 66%
Cc1ccc2cc(C=C(C#N)C#N)c(N3CCCCC3)nc2c1	inactive: 97.1%
Cc1ccc(-c2ccc(/C=N/NC(=O)Cc3nnc(N)s3)o2)cc1Cl	inconclusive: 97.2%
CCCCOc1ccc(CSc2nc(C)[nH]c2[N+](=O)[O-])cc1[N+](=O)[O-]	inconclusive: 106%
O=C(c1ccc(F)cc1)N(C(=O)c1ccc(F)cc1)c1ncccn1	inconclusive: 108%
CC(=O)Cc1nnn(-c2cc(C)on2)n1	inconclusive: 113%
CCOc1ccccc1OCCCCN1CCCC1	inactive: 96.5%
CCCC1Cc2[nH]c(=O)c(C#N)cc2CO1 (stereo not drawn)	inconclusive: 88.2%
CC1CC(C)(C)NC(=S)N1CCCC(=O)Nc1ccc(Br)cc1 (stereo not drawn)	inconclusive: 97.2%
COc1ccc(NC(=S)NC(=O)CC(C)C)c(OC)c1	inconclusive: 83.7%
COCC(C)n1c(SCC(=O)N2CCc3ccccc3C2)nc2ccccc2c1=O (stereo not drawn)	inactive: 100%
CCC(C(=O)Nc1ccc(C(=O)N2CCCC2)cc1)c1ccccc1 (stereo not drawn)	inactive: 101%
O=c1sc2ccccc2n1Cc1ccccc1	inconclusive: 107%
O=C(CSc1ccccn1)Nc1cccc([N+](=O)[O-])c1	inconclusive: 99.2%
CSc1nc2sccc2c(=O)[nH]1	inconclusive: 89%
CCCCC1=CC2=C(c3ccco3)C(=O)C(C)(OC(=O)c3ccc(OC)cc3)C(=O)C2=CN1CC(C)C (stereo not drawn)	inconclusive: 77.5%
Nc1nc(NCC2CCCO2)nc(Nc2ccccc2F)c1[N+](=O)[O-] (stereo not drawn)	inconclusive: 340%
COc1cc(Cl)cc(C2NC(=S)NC(c3ccccc3)=C2C(C)=O)c1OCC(=O)O (stereo not drawn)	inactive: 99.7%
O=C(O)/C=C/c1ccc([N+](=O)[O-])o1	inconclusive: 91.2%
OC(CNCc1ccco1)COc1ccccc1 (stereo not drawn)	inactive: 99.2%
O=C(Nc1cccc2ccccc12)NC1CCS(=O)(=O)C1 (stereo not drawn)	inactive: 128%
O=c1c2ccccc2nc(COc2ccccc2)n1/N=C/c1ccc(O)c(O)c1	inconclusive: 66.8%

Compound	binding response (% of control)
Cc1ccc(NC(=O)/C(C#N)=C/c2ccc(Sc3nc(C)cc(C)n3)o2)cc1	inactive: 98%
O=C(COC(=O)c1c[nH]c(=O)[nH]c1=O)Nc1ccccc1F	inconclusive: 118%
Cc1ccc(S(=O)(=O)CCNC(=O)Cc2ccc(Cl)cc2)cc1	inconclusive: 90.4%
COc1ccc(N=Cc2c(C)[nH][nH]c2=O)cc1	inconclusive: 95.4%
COCCNC(=O)CN(C(=O)Cn1nnc2ccccc21)c1cc(C)cc(C)c1	active: 167% [activator]
COc1ccc(/C=N/NC(=O)CN2CCN(Cc3ccccc3)CC2)cc1Br	inconclusive: 83.1%
COc1ccc(/C(N)=N/OC(=O)c2ccc3c(c2)OCO3)cc1	inactive: 133%
CCc1nc2sc(C)c(C)c2c(=O)n1CCO	inactive: 120%
COC(=O)c1scc(C)c1N1C(=O)c2ccccc2C1=O	inconclusive: 96.3%
Cc1ccc(OCCCCn2ccnc2C)c(C)c1	inconclusive: 97.7%
CCc1ccc(C(=O)NNc2cc(Cl)ccc2Cl)cc1	inconclusive: 74.5%
CCc1ccc(C(=O)NNc2ccc(F)cc2)cc1	inconclusive: 106%
COc1nc(-c2ccccc2)cc(-c2ccccc2)n1	active: 207% [activator]
CCN(CC)S(=O)(=O)c1ccc(N2CCOCC2)c(NC(=O)CC23CC4CC(CC(Br)(C4)C2)C3)c1	inactive: 107%
Clc1ccccc1Cn1nnc2c(N3CCCC3)ncnc21	inactive: 109%
Clc1cccc(-c2nc(NCC3CCCO3)c3ccccc3n2)c1 (stereo not drawn)	inactive: 99.5%
COc1ccc2oc(N)c(C=O)c(=O)c2c1	inconclusive: 108%
CC1=C(C(=O)OCC(C)C)C(c2cccs2)NC(=S)N1 (stereo not drawn)	inactive: 101%
Cc1ccccc1C(=O)NC(CC(C)C)C(=O)OCC(=O)c1c(N)n(C)c(=O)n(C)c1=O (stereo not drawn)	inconclusive: 100%
O=C(O)c1nccnc1C(=O)Nc1ccccc1N1CCOCC1	inconclusive: 299%
CCOc1ccc(Nc2nc3cc(S(=O)(=O)CC)ccc3o2)cc1	inconclusive: 143%
O=C(CC1C(=O)NCCN1C(=O)Nc1ccc(F)cc1F)Nc1ccc(F)cc1 (stereo not drawn)	inconclusive: 64.1%
COc1cc(/C=N/NC(=O)c2cc(C3CC3)[nH]n2)ccc1O	inconclusive: 117%
Cc1c(C(=O)Nc2ccc(F)cc2)c2ccccn2c1CCc1ccncc1	inactive: 92.5%

Compound	binding response (% of control)
Cc1cc(C(=O)Nc2nnc(C(F)(F)F)s2)cs1	inconclusive: 103%
C=CCc1cc(Cl)ccc1OCCOCCN(C)C	inconclusive: 99.2%
Cc1ccc(C(=O)CC2(O)C(=O)N(C)c3ccc(Br)cc32)c(C)c1 (stereo not drawn)	inactive: 99.8%
COC(=O)c1ccc(NC(=S)Nc2ccc(O)cc2)cc1	inconclusive: 101%
C#CCOCCOCCOCCNc1nc(N2CCN(C(=O)[C@H](CCCCN)n3cc([C@@H](N)CO)nn3)CC2)nc(N2CCN(C(=O)[C@H](Cc3cc4ccccc4[nH]3)n3cc([C@@H](N)CO)nn3)CC2)n1	inconclusive: 116%
COc1cnn(-c2ccccc2)c(=O)c1OC	inconclusive: 85.1%
COC(=O)c1ccc(Cn2cc(C(F)(F)F)cc([N+](=O)[O-])c2=O)cc1	inconclusive: 112%
Cc1cccc(NC(=O)C(=O)NCC2CCCO2)c1 (stereo not drawn)	inactive: 99.8%
CN(C)CCOC(=O)NC12CC3CC(CC(C3)C1)C2	inconclusive: 90.6%
O=C(NCc1ccco1)/C(=C\c1cccs1)NC(=O)c1ccco1	inconclusive: 95%
CC(=O)NC(c1ccc(C)cc1)c1cc([N+](=O)[O-])c2cccnc2c1O (stereo not drawn)	inactive: 87%
Cc1cccc(NC(=O)c2nc[nH]c2C(=O)N[C@@H](CCCCNC(=O)OC(C)(C)C)C(=O)OC(C)(C)C)c1	inconclusive: 93.2%
O=C1CSC(c2ccccc2F)N1 (stereo not drawn)	inconclusive: 104%
CCN(CC)C1=CC(=O)OC12CCCCC2	inactive: 97.9%
O=C(COc1ccccc1)Nc1ccc2[nH]c(=O)[nH]c2c1	inconclusive: 116%
Cc1ccc(/C=C2/C(=O)ON=C2c2ccccc2)o1	inconclusive: 217%
CC1CCCC(C)N1C(=O)CSc1nc2ccccc2c(=O)[nH]1 (stereo not drawn)	inconclusive: 106%
CC(=O)N/C(=C\c1ccc2c(c1)OCO2)C(=O)NC(C(=O)O)c1ccccc1 (stereo not drawn)	inconclusive: 91.2%
CC#CC[N+](C)(C)CCCCCCCCCC	inconclusive: 541%
O=[N+]([O-])c1ccc(COc2ncnc3ccccc23)cc1	inactive: 104%
COCCn1c(SCc2csc(-c3ccccc3)n2)nc2ccccc21	inactive: 103%

Not a retest: an excerpt of the list.
Compound	binding response (% of control)
O=C(NCc1ccco1)/C(=C\c1cccs1)NC(=O)c1ccco1	inconclusive: 95%
CC(=O)NC(c1ccc(C)cc1)c1cc([N+](=O)[O-])c2cccnc2c1O (stereo not drawn)	inactive: 87%

From PubChem BioAssay AID1439 (NMMLSC, 2008)
